Measured values from PubChem BioAssay AID1347423 (Functional Genomics Laboratory (NCATS/FGL), 2020).
Out of some 52,000 sequences screened, about 210 (0.4%) were called active.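 How the source made its calls: active means gene whose silencing raises cell survival under the drug, median off-target-corrected z-score across its silencing RNAs 2 or more; inactive means the rest.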 This is one part of the list.

test: Resistance to Poly (ADP-Ribose) Polymerase inhibitor: Gene Identification via Genome-wide siRNA Screen; details: mouse BRCA2 R2336H ES cells, olaparib, CellTiter-Glo viability; hits give high values
Method in brief: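 Mouse BRCA2 R2336H ES cells were reverse-transfected with siRNA (20 nM final), treated at 48 h with 500 nM olaparib, and read by CellTiter-Glo after 72 h. Scores: MAD-based z per siRNA, median per gene, seed off-target correction.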

Row | Sequence | z-score
1 | GGAGUCAUGCUCAUUUUGCTT against A430070M19 | inactive: -0.195
2 | GAAAAGAGGAUUCCUUGCATT against Olfr1128 | inactive: -0.0904
3 | GGCAGGAUAUAACCAUCCUTT against AW125441 | inactive: 0.0809
4 | GGUUUAUCCAGGAAGUAUATT against Ptch1 | inactive: -0.597
5 | GGAUGAAAGAAAAGAAACUTT against Hoxd11 | inactive: -0.656
6 | CCAGCAAAUGCAGCACAUCTT against V1rd16 | inactive: -0.828
7 | GGCAUCAGUUCCACAACUCTT against 8230402K04Rik | inactive: 1.28
8 | GGUAGAAAAACAAUACCGGTT against 1200009F10Rik | inactive: -0.569
9 | GGCAAGGAUUUUUCUACCUTT against Tslp | inactive: 0.287
10 | GGCAGCAAGAAAAAGAUUCTT against Sfpi1 | inactive: -0.596
11 | UUUUGCACAGACCAGGGAGTT against Aspscr1 | inactive: 0.361
12 | GGACUCCAAGGACAAACUGTT against Wdrx1 | inactive: -0.0449
13 | GGACAGUGUAGUCAAAAAATT against Cx3cr1 | inactive: 0.0477
14 | CGACUGUCGUUUGUUGAUGTT against 4933401I19Rik | inactive: -0.646
15 | GAUGGUUGUAGACUUCUUATT against Olfr1216 | inactive: 0.229
16 | GGACGAGAAACCAGUGACATT against 5730466H23Rik | inactive: -2.27
17 | CCAUACCAUCUUUGAAACATT against Rpl21 | inactive: -0.687
18 | GGCUAUAGGUUUCUGGGAATT against Fzd6 | inactive: 1.17
19 | GCCAGCUGUGGGAUUUCACTT against LOC433873 | inactive: -0.553
20 | GGAUUAUGUGAAAACUCUGTT against Sgpl1 | inactive: 0.0345
21 | GCUACAUAGCCCUGAUUGCTT against Fkhl18 | inactive: 2.59
22 | GGAGUUCAACGAGAUCUGUTT against Hus1b | inactive: -0.357
23 | CCUUAUUGAGACGAAUACGTT against 5330408N05Rik | inactive: -0.542
24 | GGCCGAUCUCUAAACAUAGTT against Sfrs14 | inactive: 2.49
25 | GGCUCAGAGUUAUUUUUGCTT against Gtlf3b | inactive: 0.313
26 | CCCUUACGGGUUGACCUUGTT against Gltscr2 | inactive: 0.414

Fetched one by one from the list above (six):
Row | Sequence | z-score
3 | GGCAGGAUAUAACCAUCCUTT against AW125441 | inactive: 0.0809
11 | UUUUGCACAGACCAGGGAGTT against Aspscr1 | inactive: 0.361
8 | GGUAGAAAAACAAUACCGGTT against 1200009F10Rik | inactive: -0.569
2 | GAAAAGAGGAUUCCUUGCATT against Olfr1128 | inactive: -0.0904
15 | GAUGGUUGUAGACUUCUUATT against Olfr1216 | inactive: 0.229
20 | GGAUUAUGUGAAAACUCUGTT against Sgpl1 | inactive: 0.0345

Following part:

Row | Sequence | z-score
27 | GGACUACUCCUGGUAGUGATT against Tscot | inactive: 0.572
28 | CCACAUUGUUUGGUAACCUTT against Olfr1489 | inactive: -0.0849
29 | GACCUUCCUGUCUGAGAUCTT against Ssbp4 | inactive: -0.23
30 | GCUAAUCCAAUCACUGAUGTT against 4930422G04Rik | inactive: -0.181
31 | CCUGAAUAUAUAGUGCAUGTT against 1500001H12Rik | inactive: 1.87
32 | GCUGCUUAUCUAGACCAGCTT against A930017K11Rik | inactive: -0.615
33 | GGUGGCUUUAGGGAACAUUTT against Dctn3 | inactive: -3.2
34 | CCUAUGGUGGUGAGAGGACTT against Fbxl18 | inactive: 1.42
35 | GGUAUUAGAAGAUAAUGACTT against Akt3 | inactive: 0.39
36 | GCACUUAUUCUAGAGGAGATT against Appbp2 | inactive: -0.385
37 | GGACAAUGAACUGAUUACCTT against Ap1s2 | inactive: 0.19
38 | GGCUGGAUAUAUGGUGUACTT against Prodh2 | inactive: -0.079
39 | GCGGGCCAAGGUAGAAUACTT against D4Ertd478e | inactive: -0.178
40 | GCCCUUAUUCCAGUCAGUUTT against 4933421H10Rik | inactive: -1.91
41 | GGUUUGGUAUCAUGUAUGUTT against Ddx1 | inactive: 1.29
42 | GGGCUAUCGCUGCAUUAUCTT against Cbs | inactive: -0.0854
43 | GGACUUCAACCUGCUGUAUTT against Kctd15 | inactive: 0.901
44 | GGGAACCAUGGGAAUAUUUTT against MGC29978 | inactive: -0.555
45 | GGCAAACAAAUGGUUUGUUTT against D430030K24Rik | active: 2.76
46 | CCUAAUCAGUGUUAAGUACTT against Atrnl | inactive: -1.36
47 | GGACUUUGGUUUUUGUAAGTT against Slitl2 | inactive: -0.36
48 | GUGUGGAUAGCUGUAAACGTT against Tcl1b5 | inactive: 0.802
49 | GCACGUCUUAAAACAUUUATT against Actr6 | inactive: -0.456
50 | GGCUCACGCACUGACUAUUTT against Osgepl1 | inactive: 0.54
51 | CCCUAUCAUUACCAAGCUGTT against Hspa8 | inactive: -3.62
52 | GGACACUCUACGUAUCUCATT against Tnfrsf1b | inactive: -1.66

Row | Sequence | z-score
53 | GCGAAUUCGAAAGCUAUGATT against Arhgef10 | inactive: -2.39
54 | GGCAGACCCUGUGAAUAUATT against Cyr61 | inactive: -0.294
55 | GGUAACUCUGCUGGGAUUCTT against Olfr444 | inactive: 1.67
56 | CGGUUAGAUGAGCUUGAGATT against Smad2 | inactive: 0.479
57 | GGUCAAAAGUUCUGGACAGTT against 9630042H07Rik | inactive: 0.467
58 | GAGAUUGCCAAAGACAAAATT against V1rh18 | inactive: -0.223
59 | GGAACGAUUGGUUUUUUUUTT against Ms4a6c | inactive: 0.7
60 | GCUACAAGAUGUGGUCAACTT against Cdc42ep1 | inactive: -0.34
61 | GGGAGAGUAAUGUGGACAUTT against Slc37a2 | inactive: 3.43
62 | GGCAAGAAAGAAGUGGAACTT against 1700060H10Rik | inactive: 0.461
63 | GGCCAUGGAGAAGUACAACTT against 6720463E02Rik | inactive: 0.913
64 | GCAAGCAUGUGAGAGGGCUTT against Anapc10 | inactive: 0.582
65 | GGAUUCUUCUUCUCAGACGTT against Ciz1 | inactive: 0.189
66 | CGCAGACAAGAAAUGAAGGTT against 0610008F07Rik | inactive: -0.0362
67 | GGUAAAUUGUCAGAGUUUUTT against Phka1 | inactive: 2.05
68 | GGCUGUGAUCAAAGAACAGTT against Bbs4 | inactive: -0.697
69 | GGCGCAGCAAAUUCAAUUUTT against Shmt2 | inactive: -0.417
70 | GGAUUUUGUUGGAACAGAATT against Gna15 | inactive: -0.352
71 | GGUUUUGGCUCGAAGGAAATT against Tead2 | inactive: -1
72 | GCAUUUGGGCAACGAGAUGTT against Nr5a1 | inactive: 0.915
73 | GGACAUUCGAGGAGAGACCTT against Rdh13 | inactive: 0.674
74 | GGAACUGGAAUUUAUGAUATT against Btla | inactive: 1.1
75 | GGGUGUAAUAGUUACAAGATT against Zfp189 | inactive: 2.07
76 | GCACCAGUGUUACCACAGUTT against Foxc1 | inactive: -1.25
77 | AUAACCUAACUCACAACAATT against Olfr304 | inactive: 0.544
78 | GCAACUUUGGCACUAUCCGTT against Rnf123 | inactive: 1.3

Row | Sequence | z-score
79 | CCCUUACUAGAAAAAAGACTT against Nap1l2 | inactive: 0.282
80 | GGAUGGUGACAUGAAAAUCTT against Ifng | inactive: -0.37
81 | GGGCUUCUAACAAUACUUGTT against Frat2 | inactive: 0.586
82 | GCCCUUUUCAUUCUCCAGATT against Zdhhc25 | inactive: -0.611
83 | GGAGUGUCUUUUCUUUAAUTT against Acvr2 | inactive: 0.359
84 | CGAGCACUCAAUGUGUUGGTT against Abcb6 | inactive: -0.0471
85 | GCCACGACCAUUCAGACUCTT against A930011F22Rik | inactive: 2.32
86 | GGGUUAGACAUCUUUCUGCTT against Olfr57 | inactive: 0.639
87 | GUCUUUGGCUCGGUUUGCGTT against Dmrta2 | inactive: 0.0993
88 | GGAGAGUGGGAACCACUACTT against Prkaca | inactive: 0.679
89 | GGAGUAGACAGAGGAUGGCTT against 2310051M13Rik | inactive: -1.06
90 | CCUUAUAGAGAGAGCCCUGTT against D8Ertd325e | inactive: -0.441
91 | GGCUGUUCGUAAUAACCGCTT against Pcnt1 | inactive: -0.669
92 | GCCAUCAUCUUUGUUUAGUTT against LOC240549 | inactive: 1.22
93 | CCACAGAUUUGCCUGAAAATT against 4931407G18Rik | inactive: -1.01
94 | GGACUACGGUGAUGAUGGATT against Dpt | inactive: -2.01
95 | GCAUCACGCUAUAACCAUUTT against Slc22a17 | inactive: 0.934
96 | CCCUCAACCCAUAAUAUUATT against Zfp364 | inactive: 0.162
97 | GGCGGAAAUCAAAGGAGGATT against Dnmt1 | inactive: 1.1
98 | GGGCUGCUGAUACAAACAATT against Dnmt2 | inactive: 1.31
99 | GGGUACAAGAGUCUGUUCUTT against Fkrp | inactive: -1.28
100 | GCUCUGCCUUCAGAUGACGTT against Olfr173 | inactive: -0.214
101 | CCUAAGGAGACACGAAGCCTT against Pfc | inactive: 0.318
102 | GGAUCAAGAAUUAAUGUCUTT against Nes | inactive: 0.00402
103 | GGAAUAAAUACAGGUUCUCTT against Chuk | inactive: -0.985
104 | GAAGCGAUGCUCAGAUCCATT against Serpina1d | inactive: -1.15
